Structures were worked out from names or drawings and are uncertain.
Assays:
MET = MET (Homo sapiens, UniProt P08581); assay: MET Mobility Shift Assay; conditions: read-out: MET; biochemical assay IC50; 100 μM ATP, 60 minute kinase reaction
Experimental: (§1) Small molecule inhibition of MET kinase activity was evaluated using a fluorescence-based microfluidic mobility shift assay. MET catalyzes the production of ADP from ATP during phosphoryl transfer to the substrate peptide, FLPeptide30 (5-FAM-KKKKEEIYFFF-CONH2) (Perkin Elmer, 760430). MET enzme (Carna Biosciences, 08-151) at 0.625 nM was prepared with 10 mM MgCl2 and 1.5 μM substrate peptide in a buffer containing 50 mM HEPES, 1 mM EGTA, 0.01% Brij-35, 0.05% BSA, and 2 mM DTT and pre-incubated at room temperature for 30 min prior to the start of the reaction. 100 μM ATP was added to start the reaction. The mobility shift assay electrophoretically separates the fluorescently labeled peptides (substrate and phosphorylated product) following the 60 minute kinase reaction. The reaction was terminated by addition of 0.5 M EDTA. Both substrate and product were measured and the ratio of these values used to generate % conversion of substrate to product by the LabChip EZ reader (Perkin Elmer). ICso values were calculated using the inhibition of conversion ratio using Dotmatics Knowledge Solutions Studies curve fitting environment (Dotmatics, Bishops Stortford, UK, CM23) and are presented in Table 2.

Chains of the proteins cited; added tags and fusions are not shown. Lines headed by an entry give the natural chain unless they say otherwise; changes in a name come on top. Residues count along the entry.
UniProt P08581, whole entry: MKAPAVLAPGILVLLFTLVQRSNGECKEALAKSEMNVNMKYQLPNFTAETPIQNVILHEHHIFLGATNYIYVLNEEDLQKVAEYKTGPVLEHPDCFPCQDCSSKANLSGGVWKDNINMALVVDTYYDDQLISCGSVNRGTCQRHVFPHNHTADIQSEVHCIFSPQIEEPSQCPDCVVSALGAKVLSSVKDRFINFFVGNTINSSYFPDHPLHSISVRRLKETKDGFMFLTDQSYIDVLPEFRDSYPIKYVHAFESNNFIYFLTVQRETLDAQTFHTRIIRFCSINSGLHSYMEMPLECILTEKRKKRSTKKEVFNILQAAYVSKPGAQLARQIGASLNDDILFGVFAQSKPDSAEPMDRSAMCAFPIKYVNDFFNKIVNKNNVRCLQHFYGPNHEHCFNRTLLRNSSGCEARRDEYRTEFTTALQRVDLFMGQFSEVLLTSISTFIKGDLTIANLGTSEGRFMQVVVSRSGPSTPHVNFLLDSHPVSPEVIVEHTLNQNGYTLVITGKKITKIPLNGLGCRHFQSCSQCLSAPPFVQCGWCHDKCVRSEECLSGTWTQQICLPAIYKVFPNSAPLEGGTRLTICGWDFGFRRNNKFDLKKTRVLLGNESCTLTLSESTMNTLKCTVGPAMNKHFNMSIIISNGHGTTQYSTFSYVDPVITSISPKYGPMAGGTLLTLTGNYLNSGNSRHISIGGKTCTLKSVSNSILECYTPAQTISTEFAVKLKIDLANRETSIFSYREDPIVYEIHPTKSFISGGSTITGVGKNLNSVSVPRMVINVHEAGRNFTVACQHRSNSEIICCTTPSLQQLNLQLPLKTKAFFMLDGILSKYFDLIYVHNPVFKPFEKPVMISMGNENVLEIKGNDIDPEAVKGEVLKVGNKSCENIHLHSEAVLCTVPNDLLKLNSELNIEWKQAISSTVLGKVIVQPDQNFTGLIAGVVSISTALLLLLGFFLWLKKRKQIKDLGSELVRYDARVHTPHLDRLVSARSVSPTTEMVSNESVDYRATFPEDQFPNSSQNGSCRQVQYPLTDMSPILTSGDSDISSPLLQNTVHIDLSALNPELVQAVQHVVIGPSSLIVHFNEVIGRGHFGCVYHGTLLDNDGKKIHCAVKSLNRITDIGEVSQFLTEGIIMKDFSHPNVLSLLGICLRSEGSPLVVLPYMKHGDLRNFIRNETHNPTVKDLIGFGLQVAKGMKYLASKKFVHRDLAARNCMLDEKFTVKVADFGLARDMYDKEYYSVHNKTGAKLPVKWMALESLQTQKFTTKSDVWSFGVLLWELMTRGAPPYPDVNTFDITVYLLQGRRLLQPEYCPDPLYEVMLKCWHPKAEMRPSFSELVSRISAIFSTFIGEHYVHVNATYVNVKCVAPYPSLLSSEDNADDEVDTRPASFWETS
UniProt P08581, whole entry D1228N: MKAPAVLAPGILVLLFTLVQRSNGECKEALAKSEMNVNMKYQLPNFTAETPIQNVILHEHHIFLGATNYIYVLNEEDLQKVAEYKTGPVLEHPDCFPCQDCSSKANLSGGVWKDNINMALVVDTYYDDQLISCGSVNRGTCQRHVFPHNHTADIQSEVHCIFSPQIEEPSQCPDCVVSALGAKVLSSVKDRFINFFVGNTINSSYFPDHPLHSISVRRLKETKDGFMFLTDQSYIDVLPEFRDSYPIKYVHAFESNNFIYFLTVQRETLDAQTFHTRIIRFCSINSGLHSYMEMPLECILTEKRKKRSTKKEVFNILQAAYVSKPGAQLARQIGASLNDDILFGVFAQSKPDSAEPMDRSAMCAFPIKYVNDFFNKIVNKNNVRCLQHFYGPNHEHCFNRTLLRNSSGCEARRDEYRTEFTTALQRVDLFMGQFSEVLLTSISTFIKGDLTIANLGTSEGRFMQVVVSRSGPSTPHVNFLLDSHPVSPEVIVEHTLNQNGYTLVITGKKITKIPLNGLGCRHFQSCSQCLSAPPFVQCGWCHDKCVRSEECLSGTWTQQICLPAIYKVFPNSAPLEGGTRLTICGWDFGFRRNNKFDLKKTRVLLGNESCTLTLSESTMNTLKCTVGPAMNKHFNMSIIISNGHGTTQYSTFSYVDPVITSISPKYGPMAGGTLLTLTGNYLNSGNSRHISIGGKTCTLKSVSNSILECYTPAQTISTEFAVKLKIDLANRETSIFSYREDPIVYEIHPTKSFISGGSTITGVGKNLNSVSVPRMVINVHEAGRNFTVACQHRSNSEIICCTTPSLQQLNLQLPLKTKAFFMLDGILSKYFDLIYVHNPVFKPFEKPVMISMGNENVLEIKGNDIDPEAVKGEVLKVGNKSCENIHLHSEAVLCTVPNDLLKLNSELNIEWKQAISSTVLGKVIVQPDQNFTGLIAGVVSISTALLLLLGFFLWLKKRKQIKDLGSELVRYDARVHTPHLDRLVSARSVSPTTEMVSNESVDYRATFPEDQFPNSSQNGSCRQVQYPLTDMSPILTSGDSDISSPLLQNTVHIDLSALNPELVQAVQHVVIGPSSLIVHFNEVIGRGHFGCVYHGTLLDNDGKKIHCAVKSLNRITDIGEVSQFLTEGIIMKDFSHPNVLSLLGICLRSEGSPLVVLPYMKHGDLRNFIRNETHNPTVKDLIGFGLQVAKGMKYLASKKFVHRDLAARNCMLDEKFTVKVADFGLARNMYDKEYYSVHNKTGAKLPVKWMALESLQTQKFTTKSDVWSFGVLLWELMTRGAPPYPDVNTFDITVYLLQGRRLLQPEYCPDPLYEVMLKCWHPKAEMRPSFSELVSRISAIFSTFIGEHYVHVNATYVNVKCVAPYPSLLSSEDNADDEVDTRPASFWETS
UniProt P08581, 25-1390 limits assumed: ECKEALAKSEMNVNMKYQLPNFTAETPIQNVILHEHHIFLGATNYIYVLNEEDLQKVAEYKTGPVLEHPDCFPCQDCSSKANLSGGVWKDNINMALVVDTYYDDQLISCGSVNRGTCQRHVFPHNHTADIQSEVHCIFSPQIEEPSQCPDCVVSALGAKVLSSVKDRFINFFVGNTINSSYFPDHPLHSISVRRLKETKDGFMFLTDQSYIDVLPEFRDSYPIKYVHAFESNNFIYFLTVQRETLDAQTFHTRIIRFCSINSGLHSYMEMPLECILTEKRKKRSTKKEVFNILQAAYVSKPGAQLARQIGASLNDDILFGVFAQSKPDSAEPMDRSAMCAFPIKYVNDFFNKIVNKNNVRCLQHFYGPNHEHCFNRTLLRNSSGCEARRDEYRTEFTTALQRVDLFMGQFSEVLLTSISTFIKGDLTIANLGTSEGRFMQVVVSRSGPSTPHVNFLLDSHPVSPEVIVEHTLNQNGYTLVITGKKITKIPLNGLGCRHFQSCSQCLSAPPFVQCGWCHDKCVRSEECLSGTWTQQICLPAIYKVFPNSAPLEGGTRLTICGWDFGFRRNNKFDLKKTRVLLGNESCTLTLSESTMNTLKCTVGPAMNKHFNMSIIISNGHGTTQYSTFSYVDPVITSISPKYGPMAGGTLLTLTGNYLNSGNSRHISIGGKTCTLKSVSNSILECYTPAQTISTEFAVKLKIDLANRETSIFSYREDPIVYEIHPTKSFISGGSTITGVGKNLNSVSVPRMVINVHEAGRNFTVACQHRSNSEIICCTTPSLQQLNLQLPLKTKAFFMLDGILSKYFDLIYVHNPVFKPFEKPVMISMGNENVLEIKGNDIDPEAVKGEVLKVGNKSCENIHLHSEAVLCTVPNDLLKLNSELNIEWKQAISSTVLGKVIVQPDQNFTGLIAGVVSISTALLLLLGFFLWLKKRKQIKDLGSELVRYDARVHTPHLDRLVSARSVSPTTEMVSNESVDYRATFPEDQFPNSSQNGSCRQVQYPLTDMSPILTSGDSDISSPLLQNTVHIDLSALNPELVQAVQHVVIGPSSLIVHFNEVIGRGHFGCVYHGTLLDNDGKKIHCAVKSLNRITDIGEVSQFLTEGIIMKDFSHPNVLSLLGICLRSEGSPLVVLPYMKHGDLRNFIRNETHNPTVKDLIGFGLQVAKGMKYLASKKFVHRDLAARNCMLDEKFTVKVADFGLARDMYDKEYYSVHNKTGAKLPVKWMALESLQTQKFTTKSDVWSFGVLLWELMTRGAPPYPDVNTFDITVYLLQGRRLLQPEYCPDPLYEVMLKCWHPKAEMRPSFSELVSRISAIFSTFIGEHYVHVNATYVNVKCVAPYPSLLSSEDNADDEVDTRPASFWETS
UniProt P08581, 25-1390 D1228N limits assumed: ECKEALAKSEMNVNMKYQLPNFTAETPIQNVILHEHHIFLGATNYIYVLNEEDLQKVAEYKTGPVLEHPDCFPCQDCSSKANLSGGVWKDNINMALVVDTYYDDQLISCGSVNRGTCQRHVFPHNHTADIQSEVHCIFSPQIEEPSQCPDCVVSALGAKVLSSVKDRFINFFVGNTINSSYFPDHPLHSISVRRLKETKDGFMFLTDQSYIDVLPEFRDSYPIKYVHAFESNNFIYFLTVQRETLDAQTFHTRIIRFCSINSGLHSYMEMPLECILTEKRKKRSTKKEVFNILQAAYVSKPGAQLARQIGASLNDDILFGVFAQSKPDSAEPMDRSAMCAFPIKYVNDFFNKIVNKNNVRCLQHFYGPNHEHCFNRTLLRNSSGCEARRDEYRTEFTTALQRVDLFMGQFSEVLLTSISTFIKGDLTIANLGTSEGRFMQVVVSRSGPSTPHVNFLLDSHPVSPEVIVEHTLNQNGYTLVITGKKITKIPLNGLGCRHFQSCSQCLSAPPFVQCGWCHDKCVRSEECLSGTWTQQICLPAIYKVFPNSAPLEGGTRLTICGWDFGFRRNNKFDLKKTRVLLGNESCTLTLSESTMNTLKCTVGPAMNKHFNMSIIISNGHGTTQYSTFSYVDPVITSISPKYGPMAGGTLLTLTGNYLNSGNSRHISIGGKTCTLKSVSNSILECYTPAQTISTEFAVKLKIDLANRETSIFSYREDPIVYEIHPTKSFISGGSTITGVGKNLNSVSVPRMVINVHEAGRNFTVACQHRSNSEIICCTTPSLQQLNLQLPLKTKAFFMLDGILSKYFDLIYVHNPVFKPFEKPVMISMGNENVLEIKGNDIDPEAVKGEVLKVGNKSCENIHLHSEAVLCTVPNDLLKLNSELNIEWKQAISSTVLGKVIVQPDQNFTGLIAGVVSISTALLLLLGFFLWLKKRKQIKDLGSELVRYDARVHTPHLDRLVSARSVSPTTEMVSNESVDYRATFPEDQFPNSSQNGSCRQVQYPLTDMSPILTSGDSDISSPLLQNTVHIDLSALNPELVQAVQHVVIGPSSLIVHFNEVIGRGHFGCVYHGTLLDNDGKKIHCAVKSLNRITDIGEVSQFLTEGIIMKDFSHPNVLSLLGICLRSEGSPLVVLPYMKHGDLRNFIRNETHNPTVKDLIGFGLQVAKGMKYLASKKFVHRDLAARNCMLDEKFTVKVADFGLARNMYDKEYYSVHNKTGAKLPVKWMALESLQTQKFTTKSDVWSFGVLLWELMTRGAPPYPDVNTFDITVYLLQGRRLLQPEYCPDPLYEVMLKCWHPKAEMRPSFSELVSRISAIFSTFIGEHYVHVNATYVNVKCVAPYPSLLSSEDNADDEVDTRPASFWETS

[1] = target: Ba/F3-TPR-MET-D1228N cells (Homo sapiens, UniProt P08581, D1228N, cells depend on it); assay: CellTiter-Glo Cell Viability Assay, Ba/F3-TPR-MET-D1228N; conditions: read-out: Ba/F3-TPR-MET-D1228N, 72 hours
Experimental: (§2) Ba/F3-TPR-MET and Ba/F3-TPR-MET-D1228N cells were seeded at 3000 cells per well in a 96 well plate in 90 μL growth media and allowed to incubate overnight at 37° C. with 5% CO2. The following day, compounds were serially diluted from a 10 mM top dose for a 9-point 3-fold dilution curve in DMSO. Following a 100-fold dilution in growth media, a further 10-fold dilution was made into the cell plate for a final volume of 100 μL and 0.1% DMSO. Compounds and cells were incubated together for 72 hours at 37° C. with 5% CO2. The CellTiter-Glo® 2.0 Assay determines the number of viable cells in culture by quantifying ATP, which indicates the presence of metabolically active cells. Luminescence readout is directly proportional to the number of viable cells in culture. CellTiter-Glo reagent (Promega, G9243) and cell plates were allowed to equilibrate to room temperature for at least 15 min, then 100 μL of CellTiter-Glo was added to each well for a 1:1 ratio of reagent to media. Samples were placed on a shaker for 2 min prior to a 30 min incubation at room temperature protected from light. Luminescence was read on a Perkin Elmer Envision plate reader 2105 and used to calculate ICso values within the Dotmatics Knowledge Solutions Studies curve fitting environment (Dotmatics, Bishops Stortford, UK, CM23) and are presented in Table 2.

Ba/F3-TPR-MET cells = Ba/F3-TPR-MET cells (Homo sapiens, UniProt P08581); assay: CellTiter-Glo Cell Viability Assay, Ba/F3-TPR-MET; conditions: read-out: Ba/F3-TPR-MET, 72 hours
Experimental: as §2

MET D1228N = MET D1228N (Homo sapiens, UniProt P08581, D1228N); assay: MET D1228N Mobility Shift Assay; conditions: read-out: MET-D1228N; biochemical assay IC50; 100 μM ATP, 60 minute kinase reaction
Experimental: as §1, with “MET D1228N” for “MET”, “a fluorescence -based” for “a fluorescence-based”, “FLPeptide30 (5-FAM-KKKKEEIYFFF -CONH2)” for “FLPeptide30 (5-FAM-KKKKEEIYFFF-CONH2)”, “MET D1228N enzyme (Signalchem, M52-12IG)” for “MET enzme (Carna Biosciences, 08-151)”, “at 0.313” for “at 0.625”

With `COc1cc2c(Oc3c(F)cc(NC(=O)c4cnccc4OC4CC4)cc3F)ccnc2cc1OCC[C@@H](C)O` the IC50 (MET) was less than 100 nM, the EC50 [1] was 100 to 1000 nM and the EC50 (Ba/F3-TPR-MET cells) was 1000 to 10000 nM. It also gave an IC50 (MET D1228N) of less than 100 nM.

— patent US11753395B2 (Kinnate Biopharma Inc., priority 2021, dated 2023)
